# According to the supplement of paper PMC11348887:
# Counter-ions that a name gives are not always drawn. This is one part of the list. Most values lie at the level of the controls, where differences are scatter.
# Key:
# Conditions in all cases: 5 µM; treatment: days 7-14 after plating, readout day 21
# [1] = test system: hPSC-derived cortical neurons (WA09); test: nucleus area z-score vs screen plate; higher = larger nuclei (more mature)
# [2] = test system: hPSC-derived cortical neurons (WA09); test: total neurite length per nucleus (MAP2) z-score; higher = more neurite growth
# [3] = test system: hPSC-derived cortical neurons (WA09); test: nucleus roundness z-score vs screen plate; higher = rounder nuclei (more mature)
# [4] = test system: hPSC-derived cortical neurons (WA09); test: KCl-induced FOS+/EGR-1+ double-positive nuclei fraction z-score (KCl minus unstimulated); higher = stronger activity-induced IEG response
SMILES,nucleus area z-score [1],total neurite length per nucleus (z-score) [2],nucleus roundness z-score [3],KCl-induced FOS+/EGR-1+ double-positive nuclei fraction z-score [4]
O=C(Nc1cccc2c(=O)cc(-c3nnn[nH]3)oc12)c1ccc(OCCCCc2ccccc2)cc1 [Pranlukast],0.331,1.09,1.42,4.23
CN1C2=CC(=O)/C(=N\NC(N)=O)C=C2CC1S(=O)(=O)O (stereo not drawn) [Carbazochrome sodium sulfonate (AC-17)],0.976,-0.645,-0.273,-0.536
NC(=O)c1cccnc1 [Nicotinamide (Vitamin B3)],0.443,-0.964,-1.22,0.128
COc1ccc(-c2oc3c(CC=C(C)C)c(O[C@@H]4O[C@H](CO)[C@@H](O)[C@H](O)[C@H]4O)cc(O)c3c(=O)c2O[C@@H]2O[C@@H](C)[C@H](O)[C@@H](O)[C@H]2O)cc1 [Icariin],0.52,-1.55,-1.52,-1.13
CCN(CCCc1ccccc1)CCCc1ccccc1 [Alverine Citrate],-2.24,-1.29,-0.264,-0.103
CC(=O)[C@H]1CC[C@H]2[C@@H]3C=CC4=CC(=O)CC[C@@]4(C)[C@@H]3CC[C@]12C [Dydrogesterone],0.555,-0.136,0.123,0.416
Cc1ccnc(NS(=O)(=O)c2ccc(N)cc2)n1 [Sulfamerazine],-0.515,-0.178,-0.174,1.01
O=C1c2cccc3c2[C@H](CCC3)CN1[C@@H]1CN2CCC1CC2 [Palonosetron HCl],0.747,-0.208,-0.218,-0.832
CC(C)NCC(O)COc1ccc(COCCOC(C)C)cc1 (stereo not drawn) [Bisoprolol fumarate],3.2,-1.01,-1.46,2.21
O=S(=O)(c1ccccc1)N(CC(F)(F)F)c1ccc(C(O)(C(F)(F)F)C(F)(F)F)cc1,0.358,-0.213,-1.35,-0.253
CCCCOC(=O)c1ccc(N)cc1 [Butamben],0.101,0.52,0.11,0.687
Cc1c(C(=O)NN2CCCCC2)nn(-c2ccc(Cl)cc2Cl)c1-c1ccc(Cl)cc1 [Rimonabant],-0.00982,0.39,0.642,2.37
CC(C)c1onc(-c2c(Cl)cccc2Cl)c1COc1ccc(/C=C/c2cccc(C(=O)O)c2)c(Cl)c1,1.3,-1.37,-1.08,-1.02
COc1ccc(-c2coc3cc(O)ccc3c2=O)cc1 [Formononetin],-0.0849,-0.224,-0.6,0.0587
C=CCNc1ncnc2ccc(Br)cc12,0.728,-0.914,-1.2,-0.777
COc1cccc(-c2cc(F)ccc2C2Cc3nc(N)nc(C)c3C(=O)N2)n1 (stereo not drawn),-7.12,-3.19,-1.14,-0.321
CCNC(=O)c1noc(-c2cc(Cl)c(O)cc2O)c1-c1ccc(OC)cc1,-10.9,-3.52,-1.26,-0.43
O=C1NC(=O)C(c2cnc3ccccn23)=C1c1cn2c3c(cc(F)cc13)CN(C(=O)N1CCCCC1)CC2,-0.665,-0.447,-2.37,-1.22
CC#CC(=O)N1CCC[C@H]1c1nc(-c2ccc(C(=O)Nc3ccccn3)cc2)c2c(N)nccn12 [Acalabrutinib (ACP-196)],1.27,-1.15,-3.25,-0.635

SMILES,nucleus area z-score [1],total neurite length per nucleus (z-score) [2],nucleus roundness z-score [3],KCl-induced FOS+/EGR-1+ double-positive nuclei fraction z-score [4]
CNC[C@@H](O)c1ccc(O)c(O)c1 [L-Adrenaline],0.865,-0.107,0.705,0.13
NC[C@H](O)c1ccc(O)c(O)c1 [Noradrenaline bitartrate monohydrate],1.12,0.785,0.246,2.8
O=C(/C=C/c1ccc(O)c(O)c1)O[C@@H]1C[C@](O)(C(=O)O)C[C@@H](O)[C@H]1O [Chlorogenic Acid],-0.0923,-0.0204,0.193,0.584
C[C@@H](O)[C@H]1C(=O)N2C(C(=O)O)=C(S[C@@H]3CN[C@H](C(=O)N(C)C)C3)[C@H](C)[C@H]12 [Meropenem],0.446,0.51,-0.163,-0.117
C[C@@H](Oc1cc(-c2cnn(C3CCNCC3)c2)cnc1N)c1c(Cl)ccc(F)c1Cl,-0.563,0.239,-0.564,-1.01
O=C1O[C@H]([C@@H](O)CO)C(O)=C1O [Vitamin C],-0.242,1.24,1.72,2.91
NS(=O)(=O)c1cc2c(cc1Cl)NC(C(Cl)Cl)NS2(=O)=O (stereo not drawn) [Trichlormethiazide],-0.42,-0.213,-0.272,-1.38
C=CC(=O)N1C/C(=C\c2ccc([N+](=O)[O-])cc2)C(=O)/C(=C/c2ccc([N+](=O)[O-])cc2)C1,-4.05,-2.39,-2.29,4.19
CC(=O)Nc1cccc(-n2c(=O)n(C3CC3)c(=O)c3c(Nc4ccc(I)cc4F)n(C)c(=O)c(C)c32)c1,-0.189,-0.488,-0.631,-1.08
CCCSc1ccc2[nH]c(NC(=O)OC)nc2c1 [Albendazole],-0.0996,-0.516,0.427,-0.372
COc1cc2ncnc(Oc3cccc(NC(=O)Nc4cc(C(C)(C)C(F)(F)F)on4)c3)c2cc1OC,0.914,1.01,1.44,0.91
FC(F)(F)C(Cl)Br (stereo not drawn) [Halothane],-0.331,0.681,0.798,-0.345
Cc1cn(-c2cc(NC(=O)c3ccc(C)c(Nc4nccc(-c5cccnc5)n4)c3)cc(C(F)(F)F)c2)cn1 [Nilotinib (AMN-107)],0.42,1.15,-1.79,0.0561
CN(C)CCC(c1ccc(Br)cc1)c1ccccn1 (stereo not drawn) [Brompheniramine hydrogen maleate],1.09,-0.241,0.556,0.00466
C/C=C1/[C@H](O[C@@H]2O[C@H](CO)[C@@H](O)[C@H](O)[C@H]2O)OC=C(C(=O)OC)[C@H]1CC(=O)OCCc1ccc(O)c(O)c1 [Oleuropein],0.213,-0.015,-0.187,1.32
CCCCNc1ccc(C(=O)OCCN(C)C)cc1 [Tetracaine HCl],-0.635,0.072,-1.13,-0.401
CC(=O)N1CCN(c2ccc(OCC3COC(Cn4ccnc4)(c4ccc(Cl)cc4Cl)O3)cc2)CC1 (stereo not drawn) [Ketoconazole],0.0914,-0.43,-0.272,-0.923
CO[C@H]1/C=C/O[C@@]2(C)Oc3c(C)c(O)c4c(c3C2=O)C2=NC3(CCN(CC(C)C)CC3)NC2=C(NC(=O)/C(C)=C\C=C\[C@H](C)[C@H](O)[C@@H](C)[C@@H](O)[C@@H](C)[C@H](OC(C)=O)[C@@H]1C)C4=O [Rifabutin],0.335,1.22,1.39,1.32
Cc1c(Cc2ccc3ccccc3n2)c2cc(F)ccc2n1CC(=O)O,0.3,0.833,1.21,0.306

SMILES,nucleus area z-score [1],total neurite length per nucleus (z-score) [2],nucleus roundness z-score [3],KCl-induced FOS+/EGR-1+ double-positive nuclei fraction z-score [4]
CCCSc1nc(N[C@@H]2C[C@H]2c2ccc(F)c(F)c2)c2nnn([C@@H]3C[C@H](OCCO)[C@@H](O)[C@H]3O)c2n1 [Ticagrelor],-0.825,1.34,1.64,-0.271
CCN(CC)CCOC(=O)c1ccc(N)cc1 [Procaine HCl],-0.911,0.309,-0.387,0.473
Cc1cc(C)cc(NC(=O)Cc2ccc(OC(C)(C)C(=O)O)cc2)c1 [Efaproxiral Sodium],0.125,0.162,-0.0594,0.592
CCN(CC)CCCC(C)Nc1nc(C)cc(Nc2ccc3nc(C)cc(N)c3c2)n1 (stereo not drawn),-0.939,-0.557,-0.117,-0.998
CCCCCCc1ccc(O)cc1O [Hexylresorcinol],0.182,1.06,0.271,1.32
CC(C)CC(N)=O [Isovaleramide],1.18,-1.18,-0.476,-0.447
Cc1cccc(-c2[nH]c(C(C)(C)C)nc2-c2ccc3nccnc3c2)n1,4.45,-3.06,-3.11,-1.18
C[C@H]1COC2=C1C(=O)C(=O)c1c2ccc2c1CCCC2(C)C [Cryptotanshinone],2.12,-1.12,-0.854,-0.154
O=C1NC(=O)/C(=C/c2cccc(C(F)(F)F)c2)S1,0.15,0.845,-0.0331,0.819
COC(=O)C1=CO[C@@H](O)[C@@H]2C(CO)=CC[C@H]12 [Genipin],0.397,1.21,0.837,1.15
CC(C=CC(=O)NO)=CC(C)C(=O)c1ccc(N(C)C)cc1 (stereo not drawn) [Trichostatin A (TSA)],-7.25,-2.57,-2.47,-0.0416
CC(C)CCN1c2nc(Nc3cc(F)c(O)c(F)c3)ncc2N(C)C(=O)C1C (stereo not drawn),1.07,0.724,0.664,0.882
CCN1CCN(c2cc3c(cc2F)c(=O)c(C(=O)O)cn3C2CC2)CC1 [Enrofloxacin],-0.975,0.148,-0.839,0.691
C[C@]12C=CC(=O)C=C1CC[C@@H]1[C@@H]2C(=O)C[C@@]2(C)[C@H]1CC[C@]2(O)C(=O)CO [Prednisone],1.05,-0.376,0.0342,-0.238
COc1cccc2c1C(=O)c1c(O)c3c(c(O)c1C2=O)C[C@@](O)(C(=O)CO)C[C@@H]3O[C@H]1C[C@H](N)[C@H](O[C@@H]2CCCCO2)[C@H](C)O1 [Pirarubicin],-6.52,-1.61,-0.0453,-1.03
CCCCCCCCCCCCCCCC(=O)O[C@@H]1[C@@H](O)[C@@H](O)[C@@H]([C@H](NC(=O)[C@@H]2C[C@@H](CCC)CN2C)[C@H](C)Cl)O[C@@H]1SC [Clindamycin palmitate HCl],-0.382,-2.5,-3.3,-1.56
CC(C)N(CC[C@H](c1ccccc1)c1cc(CO)ccc1O)C(C)C,0.209,0.645,1.01,1.23
Cn1c(=O)c(F)c(Nc2ccc(I)cc2F)c2c(=O)n(C[C@@H](O)CO)cnc21,-5.84,-1.93,-3.46,-0.544
N#Cc1ccc(COC[C@H]2O[C@@H](n3c(NCc4ccc(Cl)c(Cl)c4)nc4c(N)ncnc43)[C@H](O)[C@@H]2O)cc1,-0.455,0.513,0.741,1.69

# Part of the list above, tab-delimited.
SMILES	nucleus area z-score [1]	total neurite length per nucleus (z-score) [2]	nucleus roundness z-score [3]	KCl-induced FOS+/EGR-1+ double-positive nuclei fraction z-score [4]
CC(C=CC(=O)NO)=CC(C)C(=O)c1ccc(N(C)C)cc1 (stereo not drawn) [Trichostatin A (TSA)]	-7.25	-2.57	-2.47	-0.0416
CC(C)CCN1c2nc(Nc3cc(F)c(O)c(F)c3)ncc2N(C)C(=O)C1C (stereo not drawn)	1.07	0.724	0.664	0.882
